# Test results as given in PubChem BioAssay AID504842 (National Center for Advancing Translational Sciences (NCATS), 2011).
# Screen size: about 330,000 compounds; about 100 (0.03%) were called active. Inconclusive means that the source gave no clear call. Such entries were picked first, then a sample of the others. Calls come from the whole dose curve; as a rule, active = well fitted inhibition curve with a large enough effect; inconclusive = small, poorly fitted or top-dose-only effect; inactive = flat fitted curve, though single readings scatter. Potencies beside an inconclusive call are fits to weak or partial responses and may not hold up.
# Tested on: Chaperonin Mm-Cpn (Methanococcus maripaludis)
# Assay: Inhibitors of TCP-1 ring complex (TRiC) of Methanococcus maripaludis (MmCpn): qHTS; note: nearly all actives have a fitted effect of over 80% in size;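 for Potency: enzyme at 25 nM with ATP substrate at 10 µM during the reaction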
# Conditions: purified Mm-Cpn ATPase, ADP Transcreener TR-FRET; activity, negative = inhibition: at the top concentration
# In short: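 ATPase turnover read by TR-FRET ADP competition (Eu cryptate antibody/ADP-d2, 665/590 nm): 10uM ATP final, 25nM Mm-CPN final, 30 min 37degC after 10-min compound preincubation, pH 7.4 Tris/KCl/MgCl2/DTT buffer.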
# % is set by controls: 0 for no effect and ±100 for the full control effect; potency is the fitted concentration of half-maximal effect.
Compound,Potency,"activity, negative = inhibition"
CN(c1ccc(C(=O)NCc2ccncc2)cc1)S(=O)(=O)c1ccc(Cl)cc1,"inconclusive: 100 µM [inhibitor, partial curve, poor fit]",
COc1cc(/C=C2\SC(=O)N(CCN)C2=O)ccc1OS(=O)(=O)c1cc(C)ccc1C,,inactive: -0.964%
COc1ccc(S(=O)(=O)N(CC(=O)NC(C)C)Cc2ccccc2)cc1,,inactive: 1.23%
CC(C)NC(=O)COc1coc(CN2CCN(C(=O)c3ccco3)CC2)cc1=O,"inconclusive: 100 µM [inhibitor, single point]",
C/C(=N\NS(=O)(=O)c1ccccc1)c1ccccc1,,inactive: -5.05%
CC(=O)Nc1cccc(C(=O)N/N=C/c2c[nH]c3ccccc23)c1,"inconclusive: 100 µM [inhibitor, single point]",
O=C(/C=C/c1ccccc1)OCCN1C(=O)c2ccccc2C1=O,"inconclusive: 63.1 µM [inhibitor, single point]",
Nc1cc(=O)[nH]c(SCCSc2ccccc2F)n1,"inconclusive: 100 µM [inhibitor, single point]",
CN(c1ccccc1C(=O)Nc1ccccc1-c1ccccc1)S(C)(=O)=O,"inconclusive: 17.8 µM [inhibitor, single point]",
CC1=C(Nc2ccc(C(=O)O)cc2)C(=O)c2ccccc2C1=O,"inconclusive: 2510 µM [inhibitor, partial curve, poor fit]",
CCCCC1OC23CCCCC2C(C#N)(C(=N)O3)C1(C#N)C#N (stereo not drawn),,inactive: -2.47%
N#C/C(=C\c1ccccc1[N+](=O)[O-])c1nc(C2CC2)cs1,,inactive: 0.302%
CCNc1nnc(-c2ccncc2)s1,,inactive: -1.36%
CN(CC(=O)Nc1ccccc1Cl)C(=O)CSC(=S)N1CCCC1,"inconclusive: 50.1 µM [inhibitor, single point]",
Cc1cc(/C=N/NC(N)=S)c(C)n1-c1cccc(Cl)c1,"inconclusive: 100 µM [inhibitor, single point]",
CCOC(=O)C1CCN(C2=C(NS(=O)(=O)c3ccc(Cl)cc3)C(=O)c3ccccc3C2=O)CC1,,inactive: -2%
O=C1c2cccc3cccc(c23)C(=O)N1CCN1CCN(CC(O)COc2ccc3ccccc3c2)CC1 (stereo not drawn),,inactive: -11.2%
COc1cc(C(=O)Nc2ccc(C(F)(F)F)cc2)ccc1OCC(=O)N1CCOCC1,"inconclusive: 15.8 µM [inhibitor, single point]",
CCN(CC)C(=O)Cn1c(=O)n(CCCCCC(=O)Nc2ccccc2)c(=O)c2sccc21,"inconclusive: 70.8 µM [inhibitor, single point]",
Cn1ccc(NS(=O)(=O)c2cc(Br)ccc2Br)n1,"inconclusive: 79.4 µM [inhibitor, single point]",
O=C(CN1C2=NCCN2c2ccccc21)c1ccc2c(c1)OCO2,"inconclusive: 25.1 µM [inhibitor, single point]",
CN(C)CCNC(=O)c1ccc2c(=O)n(Cc3ccc(Cl)cc3)c(=S)[nH]c2c1,,inactive: -0.619%

# Arranged by molar mass (rising): three of the compounds above.
Compound,Potency,"activity, negative = inhibition"
Cc1cc(/C=N/NC(N)=S)c(C)n1-c1cccc(Cl)c1,"inconclusive: 100 µM [inhibitor, single point]",
COc1ccc(S(=O)(=O)N(CC(=O)NC(C)C)Cc2ccccc2)cc1,,inactive: 1.23%
O=C1c2cccc3cccc(c23)C(=O)N1CCN1CCN(CC(O)COc2ccc3ccccc3c2)CC1 (stereo not drawn),,inactive: -11.2%

# (list continues)

Compound,Potency,"activity, negative = inhibition"
COCC(C)n1c(C)cc(C(=O)CN2c3cccc4cccc(c34)S2(=O)=O)c1C (stereo not drawn),"inconclusive: 316 µM [inhibitor, partial curve, poor fit]",
COc1ccc(OC)c(NC(=O)C2CCN(C(=O)C3CC(=O)N(c4ccc(C)cc4)C3)CC2)c1 (stereo not drawn),"inconclusive: 25.1 µM [inhibitor, single point]",
CCN(CC)CCOc1ccc(/C(=C(/Cl)c2ccccc2)c2ccccc2)cc1,"inconclusive: 12.6 µM [inhibitor, partial curve, poor fit]",
COc1ccc(OC(=O)c2ccc(OC)c(S(=O)(=O)N3CCOCC3)c2)cc1,"inconclusive: 63.1 µM [inhibitor, single point]",
Cc1nn(Cc2ccc(Cl)cc2)c(Cl)c1/C=N/NC(=O)c1cccnc1,"inconclusive: 11.2 µM [inhibitor, single point]",
CCCCC(OC(=O)c1ccco1)C(=O)NCc1ccc(C)cc1 (stereo not drawn),,inactive: 0.317%
Cc1ccc(NC(=O)CS(=O)CC(=O)N(CC(=O)NC(C)(C)C)c2cccc(C)c2C)cc1 (stereo not drawn),,inactive: -2.23%
COc1ccc(-c2c(C#Cc3ccsc3)c3cc(-c4cccc5[nH]ccc45)ccc3n2C)cc1,"inconclusive: 11.2 µM [inhibitor, partial curve, poor fit]",
CC1=NN(c2ccc(N)cc2)C(=O)C1,"inconclusive: 79.4 µM [inhibitor, single point]",
Cc1ccccc1C1C(C#N)=C2N=C(N)c3c(sc4c3CCCCC4)N2C2=C1C(=O)CCC2 (stereo not drawn),"inconclusive: 79.4 µM [inhibitor, single point]",
COc1cc(C2C(C#N)=C(N)Oc3cc(C)n(CCc4ccccc4)c(=O)c32)cc2c1OCO2 (stereo not drawn),,inactive: 1.9%
O=C(NCCc1ccc(Cl)cc1)c1ccc(=O)[nH]c1,,inactive: 0.526%
N#Cc1c(SCC(N)=O)nc2c(c1-c1ccc(O)cc1)CCCC2,"inconclusive: 89.1 µM [inhibitor, partial curve, poor fit]",
COc1ccc(C)c(NC(=O)NCCc2cnc[nH]2)c1,"inconclusive: 11.2 µM [inhibitor, single point]",
COc1ccc(C(=O)Nc2ccc3nc(N4CCN(C)CC4)cc(C)c3c2)c(OC)c1,"inconclusive: 89.1 µM [inhibitor, single point]",
Cc1ccc2oc(C(=O)N3CCC(O)(c4ccccc4)CC3)c(C)c2c1,,inactive: -3.83%
COc1ccc(-c2csc3ncnc(N4CCN(S(=O)(=O)c5cccc(Br)c5)CC4)c23)cc1,"inconclusive: 126 µM [inhibitor, partial curve, poor fit]",
OCc1cn(-c2ccccc2)nc1-c1cc2ccccc2o1,"inconclusive: 89.1 µM [inhibitor, single point]",
Oc1ccc(/C=N/N2CCOCC2)c(O)c1O,"inconclusive: 251 µM [inhibitor, partial curve, poor fit]",
COc1cccc(C(C(=O)NC2CCCC2)N(C(=O)c2ccco2)C2CC2)c1OC (stereo not drawn),"inconclusive: 56.2 µM [inhibitor, single point]",
Cc1cc(C)nc(N2CCC(C(=O)Nc3ccc(Oc4ccccc4)cc3)CC2)n1,"inconclusive: 100 µM [inhibitor, single point]",
